# Experimental data: the supplement of paper PMC8728848
# The other results are listed elsewhere or left out.
# B1: SspB C123 (Streptococcus gordonii), Q54186 (protein)
# chain: MAHFHYSSLLAQPQINKEIKNEDGVDIDRTLVAKQSIGKFELKTEALTAGRPKTTSFVLVDPLPTGYKFDLDATKAASTGFDTTYDEASHTVTFKATDETLATYNADLTKPVETLHPTVVGRVLNDGATYTNNFTLTVNDAYGIKSNVVRVTTPGKPNDPDNPNNNYIKPTKVNKNKEGLNIDGKEVLAGSTNYYELTWDLDQYKGDKSSKEAIQNGFYYVDDYPEEALDVRPDLVKVADEKGNQVSGVSVQQYDSLEAAPKKVQDLLKKANITVKGAFQLFSADNPEEFYKQYVSTGTSLVITDPMTVKSEFGKTGGKYENKAYQIDFGNGYATEVVVNNVPKITPKKDVTVSLDPTSENLDGQTVQLYQTFNYRLIGGFIPQNHSEELEDYSFVDDYDQAGDQYTGNYKTFSSLNLTMKDGSVIKAGTDLTSQTTAETDATNGIVTVRFKEDFLQKISLDSPFQAETYLQMRRIAIGTFENTYVNTVNKVAYASAAALEHHHHHH
# Legend:
# Experiment in all cases: glycan array binding signal (z-score within array); higher = stronger binding
# Conditions in all cases: glycan notation: IUPAC condensed, linker removed
# Kdn(a2-3)Gal(b1-4)Glc = target: Kdn(a2-3)Gal(b1-4)Glc
# In short: (§1)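 Negative Z-scores can be read as non-binding. The Z-score is calculated within each array and then averaged across arrays of one protein sequence at different concentrations or buffers and across linkers. Arrays, 3228 in all, were curated from the Consortium for Functional Glycomics database and kept only where the protein sequence was available.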
# Kdn(a2-3)Gal(b1-4)GlcNAc = target: Kdn(a2-3)Gal(b1-4)GlcNAc
# In short: as §1
# [1] = target: Kdn(a2-3)Gal(b1-4)[Fuc(a1-3)]GlcNAc
# In short: as §1
# Kdn(a2-6)Gal(b1-4)GlcNAc = target: Kdn(a2-6)Gal(b1-4)GlcNAc
# In short: as §1
# [2] = target: Man(a1-2)Man(a1-2)Man(a1-3)Man
# In short: as §1
# [3] = target: Man(a1-2)Man(a1-2)Man(a1-6)[Man(a1-3)]Man
# In short: as §1
# Man(a1-2)Man(a1-3)Man = target: Man(a1-2)Man(a1-3)Man
# In short: as §1
# [4] = target: Man(a1-2)Man(a1-3)[Man(a1-2)Man(a1-6)]Man
# In short: as §1
# [5] = target: Man(a1-2)Man(a1-3)[Man(a1-2)Man(a1-6)]Man(a1-6)[Man(a1-2)Man(a1-2)Man(a1-3)]Man
# In short: as §1
# [6] = target: Man(a1-2)Man(a1-3)[Man(a1-2)Man(a1-6)]Man(a1-6)[Man(a1-2)Man(a1-2)Man(a1-3)]Man(b1-4)GlcNAc(b1-4)GlcNAc
# In short: as §1
# [7] = target: Man(a1-2)Man(a1-3)[Man(a1-6)]Man(a1-6)[Man(a1-2)Man(a1-3)]Man(b1-4)GlcNAc(b1-4)GlcNAc
# In short: as §1
# [8] = target: Man(a1-2)Man(a1-6)[Man(a1-3)]Man(a1-6)[Man(a1-2)Man(a1-2)Man(a1-3)]Man
# In short: as §1
# [9] = target: Man(a1-2)Man(a1-6)[Man(a1-3)]Man(a1-6)[Man(a1-2)Man(a1-2)Man(a1-3)]Man(b1-4)GlcNAc(b1-4)GlcNAc
# In short: as §1
# Man(a1-3)[Man(a1-6)]Man = target: Man(a1-3)[Man(a1-6)]Man
# In short: as §1
# [10] = target: Man(a1-3)[Man(a1-6)]Man(a1-6)[Man(a1-2)Man(a1-3)]Man(b1-4)GlcNAc(b1-4)GlcNAc
# In short: as §1
# [11] = target: Man(a1-3)[Man(a1-6)]Man(a1-6)[Man(a1-3)]Man
# In short: as §1
# [12] = target: Man(a1-3)[Man(a1-6)]Man(a1-6)[Man(a1-3)]Man(b1-4)GlcNAc(b1-4)GlcNAc
# In short: as §1
# [13] = target: Man(a1-3)[Man(a1-6)]Man(b1-4)GlcNAc(b1-4)GlcNAc
# In short: as §1
# [14] = target: Man(a1-3)[Man(a1-6)]Man(b1-4)GlcNAc(b1-4)[Fuc(a1-6)]GlcNAc
# In short: as §1
# Man(a1-6)Man = target: Man(a1-6)Man
# In short: as §1
# Man(b1-4)GlcNAc = target: Man(b1-4)GlcNAc
# In short: as §1
# MurNAc(b1-4)GlcNAc = target: MurNAc(b1-4)GlcNAc
# In short: as §1
# Neu5Ac(a2-3)Gal = target: Neu5Ac(a2-3)Gal
# In short: as §1
# [15] = target: Neu5Ac(a2-3)Gal(b1-3)GalNAc
# In short: as §1
# [16] = target: Neu5Ac(a2-3)Gal(b1-3)GalNAc(b1-3)Gal(a1-4)Gal(b1-4)Glc
# In short: as §1
# [17] = target: Neu5Ac(a2-3)Gal(b1-3)GalNAc(b1-4)[Neu5Ac(a2-3)]Gal(b1-4)Glc
# In short: as §1
# [18] = target: Neu5Ac(a2-3)Gal(b1-3)GalNAc(b1-4)[Neu5Ac(a2-8)Neu5Ac(a2-3)]Gal(b1-4)Glc
# In short: as §1
# [19] = target: Neu5Ac(a2-3)Gal(b1-3)GalNAc6S
# In short: as §1
# [20] = target: Neu5Ac(a2-3)Gal(b1-3)GlcNAc
# In short: as §1
# [21] = target: Neu5Ac(a2-3)Gal(b1-3)GlcNAc(b1-2)Man
# In short: as §1
# [22] = target: Neu5Ac(a2-3)Gal(b1-3)GlcNAc(b1-2)Man(a1-3)[GlcNAc(b1-4)][Neu5Ac(a2-3)Gal(b1-3)GlcNAc(b1-2)Man(a1-6)]Man(b1-4)GlcNAc(b1-4)GlcNAc
# In short: as §1
# [23] = target: Neu5Ac(a2-3)Gal(b1-3)GlcNAc(b1-2)Man(a1-3)[Neu5Ac(a2-3)Gal(b1-3)GlcNAc(b1-2)Man(a1-6)]Man(b1-4)GlcNAc(b1-4)GlcNAc
# In short: as §1
# [24] = target: Neu5Ac(a2-3)Gal(b1-3)GlcNAc(b1-3)Gal(b1-3)GlcNAc
# In short: as §1
# [25] = target: Neu5Ac(a2-3)Gal(b1-3)GlcNAc(b1-3)Gal(b1-4)GlcNAc
# In short: as §1
# [26] = target: Neu5Ac(a2-3)Gal(b1-3)GlcNAc(b1-3)GalNAc
# In short: as §1
# [27] = target: Neu5Ac(a2-3)Gal(b1-3)GlcNAc(b1-4)Gal(b1-4)Glc
# In short: as §1
# [28] = target: Neu5Ac(a2-3)Gal(b1-3)GlcNAc(b1-6)GalNAc
# In short: as §1
# [29] = target: Neu5Ac(a2-3)Gal(b1-3)GlcNAc6S
# In short: as §1
binder,measurement,setting,value
B1,glycan array binding signal (z-score),Kdn(a2-3)Gal(b1-4)Glc,-1.06
same,glycan array binding signal (z-score),Kdn(a2-3)Gal(b1-4)GlcNAc,0.864
same,glycan array binding signal (z-score),[1],-0.919
same,glycan array binding signal (z-score),Kdn(a2-6)Gal(b1-4)GlcNAc,1.04
same,glycan array binding signal (z-score),[2],-0.657
same,glycan array binding signal (z-score),[3],-0.291
same,glycan array binding signal (z-score),Man(a1-2)Man(a1-3)Man,-0.883
same,glycan array binding signal (z-score),[4],-0.555
same,glycan array binding signal (z-score),[5],-0.508
same,glycan array binding signal (z-score),[6],-1.14
same,glycan array binding signal (z-score),[7],-0.426
same,glycan array binding signal (z-score),[8],-0.339
same,glycan array binding signal (z-score),[9],-1.18
same,glycan array binding signal (z-score),Man(a1-3)[Man(a1-6)]Man,0.367
same,glycan array binding signal (z-score),[10],-0.806
same,glycan array binding signal (z-score),[11],-0.537
same,glycan array binding signal (z-score),[12],-0.78
same,glycan array binding signal (z-score),[13],0.503
same,glycan array binding signal (z-score),[14],1.39
same,glycan array binding signal (z-score),Man(a1-6)Man,3.13
same,glycan array binding signal (z-score),Man(b1-4)GlcNAc,-1.2
same,glycan array binding signal (z-score),MurNAc(b1-4)GlcNAc,-1.41
same,glycan array binding signal (z-score),Neu5Ac(a2-3)Gal,-0.965
same,glycan array binding signal (z-score),[15],-0.687
same,glycan array binding signal (z-score),[16],-0.945
same,glycan array binding signal (z-score),[17],0.274
same,glycan array binding signal (z-score),[18],-0.494
same,glycan array binding signal (z-score),[19],-1.23
same,glycan array binding signal (z-score),[20],-0.096
same,glycan array binding signal (z-score),[21],0.771
same,glycan array binding signal (z-score),[22],0.255
same,glycan array binding signal (z-score),[23],0.359
same,glycan array binding signal (z-score),[24],-0.881
same,glycan array binding signal (z-score),[25],-0.583
same,glycan array binding signal (z-score),[26],1.75
same,glycan array binding signal (z-score),[27],-0.519
same,glycan array binding signal (z-score),[28],-0.458
same,glycan array binding signal (z-score),[29],-0.631

# Already shown: entries from further up.
binder,measurement,setting,value
B1,glycan array binding signal (z-score),[21],0.771
same,glycan array binding signal (z-score),[22],0.255
same,glycan array binding signal (z-score),[23],0.359
